Where a name gives a salt, the structure may show the parent alone. Some of the results follow. The calls rarely recur for the same compound in another form.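 Kinases, fused to nanoluciferase, were expressed in K562 cells; luminescence was measured every 4 h from 2 to 18 h as percent of control (DMSO = 100%, positive control = 0%). A time point is decreased if signal falls significantly (2 sigma). Hits were called by the authors by a rule that is not shown; the count of time points alone does not decide it.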
Tests used:
Assay in all cases: kinase-Nluc reporter destabilization hit call (1 = scored as downregulated) (binary); higher = compound decreases kinase abundance
Settings in all cases: K562; 2-18 h
IRAK3 = IRAK3 (UniProt Q9Y616)
JAK1 = JAK1 (UniProt P23458)
LCK = LCK (UniProt P06239)
LIMK1 = LIMK1 (UniProt P53667)
LIMK2 = LIMK2 (UniProt P53671)
LMTK2 = LMTK2 (UniProt Q8IWU2)
LYN = LYN (UniProt P07948)
MAP2K1 = MAP2K1 (UniProt Q02750)
MAP2K2 = MAP2K2 (UniProt P36507)
MAP4K2 = MAP4K2 (UniProt Q12851)
MAPK1 = MAPK1 (UniProt P28482)
MAPK4 = MAPK4 (UniProt P31152)
MAPKAPK2 = MAPKAPK2 (UniProt P49137)
MKNK1 = MKNK1 (UniProt Q9BUB5)
NTRK2 = NTRK2 (UniProt Q16620)
NTRK3 = NTRK3 (UniProt Q16288)
PAK4 = PAK4 (UniProt O96013)
PBK = PBK (UniProt Q96KB5)
PDGFRB = PDGFRB (UniProt P09619)
PDK1 = PDK1 (UniProt Q15118)

Amino acid sequences for entries named in this document (tags omitted). A change or cut given only in a name is not applied to a line headed by its entry.
UniProt Q9Y616: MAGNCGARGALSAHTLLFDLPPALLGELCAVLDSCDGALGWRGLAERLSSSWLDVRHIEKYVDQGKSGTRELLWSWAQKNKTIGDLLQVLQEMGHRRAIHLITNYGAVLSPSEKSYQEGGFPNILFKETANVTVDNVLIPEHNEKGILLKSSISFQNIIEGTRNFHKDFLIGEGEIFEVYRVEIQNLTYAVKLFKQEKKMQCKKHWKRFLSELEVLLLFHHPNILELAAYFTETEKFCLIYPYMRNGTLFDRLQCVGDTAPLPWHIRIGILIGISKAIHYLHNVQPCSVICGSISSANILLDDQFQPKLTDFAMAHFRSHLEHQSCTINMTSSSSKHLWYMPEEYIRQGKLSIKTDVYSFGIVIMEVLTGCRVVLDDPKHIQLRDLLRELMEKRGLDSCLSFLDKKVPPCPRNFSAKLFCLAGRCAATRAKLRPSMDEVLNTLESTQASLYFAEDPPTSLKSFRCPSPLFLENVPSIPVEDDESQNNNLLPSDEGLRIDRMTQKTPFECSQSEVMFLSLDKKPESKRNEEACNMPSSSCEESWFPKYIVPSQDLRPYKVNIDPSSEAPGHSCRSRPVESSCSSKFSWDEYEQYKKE
UniProt P23458: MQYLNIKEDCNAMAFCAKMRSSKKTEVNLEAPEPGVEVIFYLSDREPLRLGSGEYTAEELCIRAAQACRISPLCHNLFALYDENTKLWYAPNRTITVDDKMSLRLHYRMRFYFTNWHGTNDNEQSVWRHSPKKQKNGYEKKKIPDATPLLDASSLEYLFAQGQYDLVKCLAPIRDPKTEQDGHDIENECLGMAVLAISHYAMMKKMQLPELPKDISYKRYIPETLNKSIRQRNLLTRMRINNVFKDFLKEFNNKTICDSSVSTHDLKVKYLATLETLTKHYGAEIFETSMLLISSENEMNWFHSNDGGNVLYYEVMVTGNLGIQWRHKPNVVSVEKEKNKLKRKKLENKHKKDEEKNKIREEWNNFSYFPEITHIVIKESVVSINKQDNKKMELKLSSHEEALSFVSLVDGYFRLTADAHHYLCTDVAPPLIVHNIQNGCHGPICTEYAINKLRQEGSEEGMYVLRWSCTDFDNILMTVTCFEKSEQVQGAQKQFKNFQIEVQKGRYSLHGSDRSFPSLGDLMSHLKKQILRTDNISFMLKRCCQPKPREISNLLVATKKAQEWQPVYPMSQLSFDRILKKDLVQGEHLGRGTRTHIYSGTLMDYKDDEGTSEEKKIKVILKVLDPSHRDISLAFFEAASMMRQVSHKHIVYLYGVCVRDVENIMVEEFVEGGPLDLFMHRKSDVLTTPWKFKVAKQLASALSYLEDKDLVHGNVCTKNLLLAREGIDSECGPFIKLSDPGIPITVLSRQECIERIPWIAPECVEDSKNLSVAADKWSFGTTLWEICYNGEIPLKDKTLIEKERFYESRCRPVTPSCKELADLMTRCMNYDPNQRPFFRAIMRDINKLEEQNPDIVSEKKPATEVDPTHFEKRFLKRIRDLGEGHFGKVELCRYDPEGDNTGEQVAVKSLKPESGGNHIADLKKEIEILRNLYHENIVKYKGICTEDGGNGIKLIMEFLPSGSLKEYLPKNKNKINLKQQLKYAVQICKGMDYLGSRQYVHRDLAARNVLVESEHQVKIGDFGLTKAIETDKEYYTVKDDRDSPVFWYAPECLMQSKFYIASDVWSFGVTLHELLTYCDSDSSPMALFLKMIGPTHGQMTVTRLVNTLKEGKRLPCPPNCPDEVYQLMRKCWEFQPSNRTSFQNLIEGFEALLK
UniProt P53667: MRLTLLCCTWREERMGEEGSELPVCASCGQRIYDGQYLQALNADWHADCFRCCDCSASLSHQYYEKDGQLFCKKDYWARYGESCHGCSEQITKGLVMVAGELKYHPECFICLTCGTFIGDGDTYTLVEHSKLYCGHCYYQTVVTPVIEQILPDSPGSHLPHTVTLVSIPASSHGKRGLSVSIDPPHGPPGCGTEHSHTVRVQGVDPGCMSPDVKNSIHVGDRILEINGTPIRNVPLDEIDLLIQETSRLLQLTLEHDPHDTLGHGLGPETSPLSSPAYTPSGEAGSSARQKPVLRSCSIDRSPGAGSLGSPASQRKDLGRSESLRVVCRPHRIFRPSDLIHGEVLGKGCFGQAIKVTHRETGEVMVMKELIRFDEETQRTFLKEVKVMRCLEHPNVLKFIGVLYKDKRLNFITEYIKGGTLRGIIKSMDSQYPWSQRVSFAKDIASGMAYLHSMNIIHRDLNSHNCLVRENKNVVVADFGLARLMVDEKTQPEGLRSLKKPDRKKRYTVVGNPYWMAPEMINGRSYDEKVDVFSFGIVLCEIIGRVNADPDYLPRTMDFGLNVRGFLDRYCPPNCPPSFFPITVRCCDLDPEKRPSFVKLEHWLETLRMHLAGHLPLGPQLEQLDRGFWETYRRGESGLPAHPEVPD
UniProt P53671: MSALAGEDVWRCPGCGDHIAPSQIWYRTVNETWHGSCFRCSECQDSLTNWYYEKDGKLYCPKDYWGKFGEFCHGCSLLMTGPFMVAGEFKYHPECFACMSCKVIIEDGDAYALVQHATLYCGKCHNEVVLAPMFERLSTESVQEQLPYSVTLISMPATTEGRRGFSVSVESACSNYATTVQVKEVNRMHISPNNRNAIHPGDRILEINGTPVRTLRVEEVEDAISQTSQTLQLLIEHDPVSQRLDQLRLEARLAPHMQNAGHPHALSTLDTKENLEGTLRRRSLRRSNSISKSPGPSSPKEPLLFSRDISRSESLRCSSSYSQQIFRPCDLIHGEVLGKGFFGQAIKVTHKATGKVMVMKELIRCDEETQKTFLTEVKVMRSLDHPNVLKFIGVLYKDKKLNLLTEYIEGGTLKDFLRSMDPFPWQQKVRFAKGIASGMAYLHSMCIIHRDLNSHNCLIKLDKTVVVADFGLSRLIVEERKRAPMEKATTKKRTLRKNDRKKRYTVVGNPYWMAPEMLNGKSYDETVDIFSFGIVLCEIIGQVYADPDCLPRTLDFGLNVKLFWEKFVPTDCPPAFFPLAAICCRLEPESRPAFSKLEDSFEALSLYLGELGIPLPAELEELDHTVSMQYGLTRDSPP
UniProt P07948: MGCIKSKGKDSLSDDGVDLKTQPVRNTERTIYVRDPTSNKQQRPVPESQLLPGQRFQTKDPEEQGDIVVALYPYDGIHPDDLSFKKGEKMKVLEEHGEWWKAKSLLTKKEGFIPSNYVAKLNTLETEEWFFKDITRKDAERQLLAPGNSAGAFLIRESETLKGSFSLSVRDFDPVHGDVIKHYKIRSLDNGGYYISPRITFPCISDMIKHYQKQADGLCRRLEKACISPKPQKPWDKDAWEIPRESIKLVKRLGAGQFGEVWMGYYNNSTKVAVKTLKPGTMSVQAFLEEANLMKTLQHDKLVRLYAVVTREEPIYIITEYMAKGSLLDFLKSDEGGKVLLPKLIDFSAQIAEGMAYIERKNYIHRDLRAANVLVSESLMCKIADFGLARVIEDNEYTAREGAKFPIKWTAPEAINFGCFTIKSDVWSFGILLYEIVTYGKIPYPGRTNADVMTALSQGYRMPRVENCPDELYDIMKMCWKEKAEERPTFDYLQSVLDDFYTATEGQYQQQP
UniProt P28482, whole entry: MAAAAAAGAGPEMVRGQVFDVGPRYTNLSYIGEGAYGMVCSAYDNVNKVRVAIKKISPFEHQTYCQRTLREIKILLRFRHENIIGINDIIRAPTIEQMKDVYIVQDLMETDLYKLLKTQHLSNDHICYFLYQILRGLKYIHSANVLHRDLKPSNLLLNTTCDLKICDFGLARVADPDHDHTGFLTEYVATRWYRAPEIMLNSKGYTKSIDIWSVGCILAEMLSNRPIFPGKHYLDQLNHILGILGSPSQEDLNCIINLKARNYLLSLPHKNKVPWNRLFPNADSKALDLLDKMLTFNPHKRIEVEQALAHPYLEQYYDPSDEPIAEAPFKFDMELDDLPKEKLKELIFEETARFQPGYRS
UniProt P31152, whole entry: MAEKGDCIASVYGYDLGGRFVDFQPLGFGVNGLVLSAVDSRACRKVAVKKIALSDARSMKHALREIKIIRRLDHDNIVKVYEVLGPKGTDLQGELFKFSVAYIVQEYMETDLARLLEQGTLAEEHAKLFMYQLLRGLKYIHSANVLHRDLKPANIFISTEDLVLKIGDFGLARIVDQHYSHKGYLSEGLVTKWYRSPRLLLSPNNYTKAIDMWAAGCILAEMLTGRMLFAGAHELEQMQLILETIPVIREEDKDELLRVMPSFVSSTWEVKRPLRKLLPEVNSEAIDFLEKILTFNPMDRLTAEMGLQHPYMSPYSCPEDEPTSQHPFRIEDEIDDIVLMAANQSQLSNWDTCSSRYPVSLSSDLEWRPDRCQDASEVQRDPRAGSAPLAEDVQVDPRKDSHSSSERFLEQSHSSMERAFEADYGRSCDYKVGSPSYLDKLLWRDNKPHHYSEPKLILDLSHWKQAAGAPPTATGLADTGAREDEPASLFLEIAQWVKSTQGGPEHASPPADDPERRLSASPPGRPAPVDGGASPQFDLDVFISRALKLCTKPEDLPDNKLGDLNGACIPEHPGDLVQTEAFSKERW
UniProt P49137, whole entry, looked up: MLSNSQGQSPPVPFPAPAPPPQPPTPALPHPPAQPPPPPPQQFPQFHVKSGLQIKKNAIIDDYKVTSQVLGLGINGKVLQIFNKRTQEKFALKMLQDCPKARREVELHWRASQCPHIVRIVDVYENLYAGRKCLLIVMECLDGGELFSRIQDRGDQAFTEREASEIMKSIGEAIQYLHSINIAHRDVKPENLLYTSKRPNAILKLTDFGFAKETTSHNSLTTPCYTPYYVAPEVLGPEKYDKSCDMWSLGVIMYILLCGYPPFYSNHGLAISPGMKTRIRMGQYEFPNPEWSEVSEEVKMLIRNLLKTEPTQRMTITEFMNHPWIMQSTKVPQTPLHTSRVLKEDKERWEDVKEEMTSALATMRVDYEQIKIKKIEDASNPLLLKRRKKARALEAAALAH
UniProt P09619, whole entry: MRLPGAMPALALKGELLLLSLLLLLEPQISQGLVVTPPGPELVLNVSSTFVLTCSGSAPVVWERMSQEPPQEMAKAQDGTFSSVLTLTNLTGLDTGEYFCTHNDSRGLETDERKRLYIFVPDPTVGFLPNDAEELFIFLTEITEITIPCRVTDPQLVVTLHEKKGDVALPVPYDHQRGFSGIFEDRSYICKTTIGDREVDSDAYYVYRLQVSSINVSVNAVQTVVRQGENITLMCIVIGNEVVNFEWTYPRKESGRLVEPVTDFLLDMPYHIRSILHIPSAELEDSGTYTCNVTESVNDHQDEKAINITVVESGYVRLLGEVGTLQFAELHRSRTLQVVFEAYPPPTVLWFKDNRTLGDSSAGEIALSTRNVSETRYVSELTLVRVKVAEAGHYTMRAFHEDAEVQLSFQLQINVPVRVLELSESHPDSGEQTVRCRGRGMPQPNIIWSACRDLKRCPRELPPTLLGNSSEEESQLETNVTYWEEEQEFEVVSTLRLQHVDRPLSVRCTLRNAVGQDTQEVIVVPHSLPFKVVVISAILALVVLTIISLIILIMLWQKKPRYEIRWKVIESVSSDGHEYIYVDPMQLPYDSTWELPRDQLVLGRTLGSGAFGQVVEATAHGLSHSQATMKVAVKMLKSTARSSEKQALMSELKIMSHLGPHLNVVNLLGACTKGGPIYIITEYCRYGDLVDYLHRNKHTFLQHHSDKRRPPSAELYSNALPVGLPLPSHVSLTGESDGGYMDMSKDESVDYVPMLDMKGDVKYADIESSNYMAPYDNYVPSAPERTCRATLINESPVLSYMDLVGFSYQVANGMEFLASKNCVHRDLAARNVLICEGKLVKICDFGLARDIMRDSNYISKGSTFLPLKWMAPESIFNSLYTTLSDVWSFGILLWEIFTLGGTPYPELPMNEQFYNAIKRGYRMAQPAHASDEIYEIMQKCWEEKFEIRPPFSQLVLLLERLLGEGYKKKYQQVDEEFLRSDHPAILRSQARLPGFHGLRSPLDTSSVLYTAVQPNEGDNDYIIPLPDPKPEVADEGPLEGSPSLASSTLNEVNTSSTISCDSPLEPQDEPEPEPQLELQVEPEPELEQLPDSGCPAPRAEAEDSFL
UniProt Q15118, whole entry, looked up: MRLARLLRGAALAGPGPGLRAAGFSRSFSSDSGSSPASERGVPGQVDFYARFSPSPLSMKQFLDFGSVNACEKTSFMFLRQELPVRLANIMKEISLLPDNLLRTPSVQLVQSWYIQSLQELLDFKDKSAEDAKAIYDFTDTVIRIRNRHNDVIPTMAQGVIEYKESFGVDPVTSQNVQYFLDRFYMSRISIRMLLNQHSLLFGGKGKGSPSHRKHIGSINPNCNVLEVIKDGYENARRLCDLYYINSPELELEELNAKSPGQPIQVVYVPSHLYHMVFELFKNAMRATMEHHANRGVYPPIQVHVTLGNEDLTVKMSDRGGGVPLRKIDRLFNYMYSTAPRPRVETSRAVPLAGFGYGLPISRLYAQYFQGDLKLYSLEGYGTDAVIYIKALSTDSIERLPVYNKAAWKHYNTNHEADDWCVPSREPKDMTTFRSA

Measured: kinase-Nluc reporter destabilization hit call

O=C1OC(COc2ccccc2[N+](=O)[O-])CC1Cc1ccccc1 (stereo not given) (10 µM)
inactive: IRAK3 = 0 | JAK1 = 0 | LCK 0 | LIMK1 = 0 | LIMK2 = 0 | LMTK2 = 0 | LYN 0 | MAP2K1 = 0 | MAP2K2 = 0 | MAP4K2 = 0 | MAPK1 = 0 | MAPK4 = 0 | MAPKAPK2 = 0 | MKNK1 = 0 | NTRK2 = 0 | NTRK3 = 0 | PAK4 = 0 | PBK 0 | PDGFRB 0 | PDK1 = 0

COc1cc(N2CCC(O)CC2)ccc1Nc1nc(Nc2ccccc2S(=O)(=O)C(C)C)c2[nH]cnc2n1 (10 µM)
inactive: IRAK3 = 0 | JAK1 = 0 | LCK 0 | LIMK1 = 0 | LIMK2 = 0 | LMTK2 = 0 | LYN 0 | MAP2K1 = 0 | MAP2K2 = 0 | MAP4K2 = 0 | MAPK1 = 0 | MAPK4 = 0 | MAPKAPK2 = 0 | MKNK1 = 0 | NTRK2 = 0 | NTRK3 = 0 | PAK4 = 0 | PBK 0 | PDGFRB 0 | PDK1 = 0

CCc1c(C(=O)NNC(=O)[C@H](O)c2cc(F)cc(F)c2)ccc(O)c1C (10 µM)
inactive: IRAK3 = 0 | JAK1 = 0 | LCK 0 | LIMK1 = 0 | LIMK2 = 0 | LMTK2 = 0 | LYN 0 | MAP2K1 = 0 | MAP2K2 = 0 | MAP4K2 = 0 | MAPK1 = 0 | MAPK4 = 0 | MAPKAPK2 = 0 | MKNK1 = 0 | NTRK2 = 0 | NTRK3 = 0 | PAK4 = 0 | PBK 0 | PDGFRB 0 | PDK1 = 0

O=C(NCc1ccn[nH]1)c1cc([C@@H]2CCNC[C@H]2COc2ccc3c(c2)OCO3)ccc1F [GRK2-IN-1 (hydrochloride)] (10 µM)
inactive: IRAK3 = 0 | JAK1 = 0 | LCK 0 | LIMK1 = 0 | LIMK2 = 0 | LMTK2 = 0 | LYN 0 | MAP2K1 = 0 | MAP2K2 = 0 | MAP4K2 = 0 | MAPK1 = 0 | MAPK4 = 0 | MAPKAPK2 = 0 | MKNK1 = 0 | NTRK2 = 0 | NTRK3 = 0 | PAK4 = 0 | PBK 0 | PDGFRB 0 | PDK1 = 0

CC(C)Cn1ncc2cc(Oc3ccc(F)cc3F)c(C(=O)NCCN(C)C)cc21 [p38α inhibitor 1] (10 µM)
inactive: IRAK3 = 0 | JAK1 = 0 | LCK 0 | LIMK1 = 0 | LIMK2 = 0 | LMTK2 = 0 | LYN 0 | MAP2K1 = 0 | MAP2K2 = 0 | MAP4K2 = 0 | MAPK1 = 0 | MAPK4 = 0 | MAPKAPK2 = 0 | MKNK1 = 0 | NTRK2 = 0 | NTRK3 = 0 | PAK4 = 0 | PBK 0 | PDGFRB 0 | PDK1 = 0

Cc1nc(Nc2cnn(C3CCNCC3)c2)nc2c1N(C)C(=O)c1cc3ccccc3cc1N2C (2.5 µM)
inactive: IRAK3 = 0 | JAK1 = 0 | LCK 0 | LIMK1 = 0 | LIMK2 = 0 | LMTK2 = 0 | LYN 0 | MAP2K1 = 0 | MAP2K2 = 0 | MAP4K2 = 0 | MAPK1 = 0 | MAPK4 = 0 | MAPKAPK2 = 0 | MKNK1 = 0 | NTRK2 = 0 | NTRK3 = 0 | PAK4 = 0 | PBK 0 | PDGFRB 0 | PDK1 = 0

COCCOc1cnc2ccn([C@H](C)c3nnc4c(F)cc(-c5cnn(C)c5)cn34)c(=O)c2c1 (10 µM)
inactive: IRAK3 = 0 | JAK1 = 0 | LCK 0 | LIMK1 = 0 | LIMK2 = 0 | LMTK2 = 0 | LYN 0 | MAP2K1 = 0 | MAP2K2 = 0 | MAP4K2 = 0 | MAPK1 = 0 | MAPK4 = 0 | MAPKAPK2 = 0 | MKNK1 = 0 | NTRK2 = 0 | NTRK3 = 0 | PAK4 = 0 | PBK 0 | PDGFRB 0 | PDK1 = 0

O=C1CCC(N2C(=O)c3cccc(OCCCCCOc4ccc(CC(=O)Nc5cc(C6CCC6)[nH]n5)cc4)c3C2=O)C(=O)N1 (stereo not given) [PROTAC CDK9 Degrader-1] (10 µM)
inactive: IRAK3 = 0 | JAK1 = 0 | LCK 0 | LIMK1 = 0 | LIMK2 = 0 | LMTK2 = 0 | LYN 0 | MAP2K1 = 0 | MAP2K2 = 0 | MAP4K2 = 0 | MAPK1 = 0 | MAPK4 = 0 | MAPKAPK2 = 0 | MKNK1 = 0 | NTRK2 = 0 | NTRK3 = 0 | PAK4 = 0 | PBK 0 | PDGFRB 0 | PDK1 = 0

CN1CCN(Cc2ccc(-c3cn(C4CCC(O)CC4)c4nc(NCCC5CC5)ncc34)cc2)CC1 (stereo not given) (2.5 µM)
inactive: IRAK3 = 0 | JAK1 = 0 | LCK 0 | LIMK1 = 0 | LIMK2 = 0 | LMTK2 = 0 | LYN 0 | MAP2K1 = 0 | MAP2K2 = 0 | MAP4K2 = 0 | MAPK1 = 0 | MAPK4 = 0 | MAPKAPK2 = 0 | MKNK1 = 0 | NTRK2 = 0 | NTRK3 = 0 | PAK4 = 0 | PBK 0 | PDGFRB 0 | PDK1 = 0

Cc1n[nH]c2ncc(C(=O)N3CCC[C@H]3c3ccc(Cl)cc3)cc12 (10 µM)
inactive: IRAK3 = 0 | JAK1 = 0 | LCK 0 | LIMK1 = 0 | LIMK2 = 0 | LMTK2 = 0 | LYN 0 | MAP2K1 = 0 | MAP2K2 = 0 | MAP4K2 = 0 | MAPK1 = 0 | MAPK4 = 0 | MAPKAPK2 = 0 | MKNK1 = 0 | NTRK2 = 0 | NTRK3 = 0 | PAK4 = 0 | PBK 0 | PDGFRB 0 | PDK1 = 0

CC(C)(C)S(=O)(=O)c1cc2c(Nc3ccc4scnc4c3)ncnc2cc1OCCOP(=O)(O)O (2 µM)
inactive: IRAK3 = 0 | JAK1 = 0 | LCK 0 | LIMK1 = 0 | LIMK2 = 0 | LMTK2 = 0 | LYN 0 | MAP2K1 = 0 | MAP2K2 = 0 | MAP4K2 = 0 | MAPK1 = 0 | MAPK4 = 0 | MAPKAPK2 = 0 | MKNK1 = 0 | NTRK2 = 0 | NTRK3 = 0 | PAK4 = 0 | PBK 0 | PDGFRB 0 | PDK1 = 0

CNc1cc2c(Nc3cccc(Br)c3)ncnc2cn1 (10 µM)
inactive: IRAK3 = 0 | JAK1 = 0 | LCK 0 | LIMK1 = 0 | LIMK2 = 0 | LMTK2 = 0 | LYN 0 | MAP2K1 = 0 | MAP2K2 = 0 | MAP4K2 = 0 | MAPK1 = 0 | MAPK4 = 0 | MAPKAPK2 = 0 | MKNK1 = 0 | NTRK2 = 0 | NTRK3 = 0 | PAK4 = 0 | PBK 0 | PDGFRB 0 | PDK1 = 0

O=C(O)c1c[nH]c2cc(Cl)c(-c3ccc(C4(O)CCC4)cc3)cc12 (10 µM)
inactive: IRAK3 = 0 | JAK1 = 0 | LCK 0 | LIMK1 = 0 | LIMK2 = 0 | LMTK2 = 0 | LYN 0 | MAP2K1 = 0 | MAP2K2 = 0 | MAP4K2 = 0 | MAPK1 = 0 | MAPK4 = 0 | MAPKAPK2 = 0 | MKNK1 = 0 | NTRK2 = 0 | NTRK3 = 0 | PAK4 = 0 | PBK 0 | PDGFRB 0 | PDK1 = 0

Nc1nccc(Oc2ccc3c(C(=O)Nc4cccc(C(F)(F)F)c4)cccc3c2)n1 (10 µM)
inactive: IRAK3 = 0 | JAK1 = 0 | LCK 0 | LIMK1 = 0 | LIMK2 = 0 | LMTK2 = 0 | LYN 0 | MAP2K1 = 0 | MAP2K2 = 0 | MAP4K2 = 0 | MAPK1 = 0 | MAPK4 = 0 | MAPKAPK2 = 0 | MKNK1 = 0 | NTRK2 = 0 | NTRK3 = 0 | PAK4 = 0 | PBK 0 | PDGFRB 0 | PDK1 = 0

Cc1nc2c(NCc3cccc(S(C)(=O)=O)c3)nccn2c1-c1ccc(O)c(F)c1 (10 µM)
inactive: IRAK3 = 0 | JAK1 = 0 | LCK 0 | LIMK1 = 0 | LIMK2 = 0 | LMTK2 = 0 | LYN 0 | MAP2K1 = 0 | MAP2K2 = 0 | MAP4K2 = 0 | MAPK1 = 0 | MAPK4 = 0 | MAPKAPK2 = 0 | MKNK1 = 0 | NTRK2 = 0 | NTRK3 = 0 | PAK4 = 0 | PBK 0 | PDGFRB 0 | PDK1 = 0

COCCNc1cc(NC(=O)N2CCCc3cc(CN4CCOCC4=O)c(C=O)nc32)ncc1C#N (10 µM)
inactive: IRAK3 = 0 | JAK1 = 0 | LCK 0 | LIMK1 = 0 | LIMK2 = 0 | LMTK2 = 0 | LYN 0 | MAP2K1 = 0 | MAP2K2 = 0 | MAP4K2 = 0 | MAPK1 = 0 | MAPK4 = 0 | MAPKAPK2 = 0 | MKNK1 = 0 | NTRK2 = 0 | NTRK3 = 0 | PAK4 = 0 | PBK 0 | PDGFRB 0 | PDK1 = 0

CCNC(=O)Nc1ccc(-c2nc3c(c(N4CCOC[C@@H]4C)n2)CCN(C2COC2)C3)cc1 (2.5 µM)
inactive: IRAK3 = 0 | JAK1 = 0 | LCK 0 | LIMK1 = 0 | LIMK2 = 0 | LMTK2 = 0 | LYN 0 | MAP2K1 = 0 | MAP2K2 = 0 | MAP4K2 = 0 | MAPK1 = 0 | MAPK4 = 0 | MAPKAPK2 = 0 | MKNK1 = 0 | NTRK2 = 0 | NTRK3 = 0 | PAK4 = 0 | PBK 0 | PDGFRB 0 | PDK1 = 0

Ordered by length of the SMILES (largest number first): some entries from above.
COCCOc1cnc2ccn([C@H](C)c3nnc4c(F)cc(-c5cnn(C)c5)cn34)c(=O)c2c1 (10 µM)
inactive: IRAK3 = 0 | JAK1 = 0 | LCK 0 | LIMK1 = 0 | LIMK2 = 0 | LMTK2 = 0 | LYN 0 | MAP2K1 = 0 | MAP2K2 = 0 | MAP4K2 = 0 | MAPK1 = 0 | MAPK4 = 0 | MAPKAPK2 = 0 | MKNK1 = 0 | NTRK2 = 0 | NTRK3 = 0 | PAK4 = 0 | PBK 0 | PDGFRB 0 | PDK1 = 0

COCCNc1cc(NC(=O)N2CCCc3cc(CN4CCOCC4=O)c(C=O)nc32)ncc1C#N (10 µM)
inactive: IRAK3 = 0 | JAK1 = 0 | LCK 0 | LIMK1 = 0 | LIMK2 = 0 | LMTK2 = 0 | LYN 0 | MAP2K1 = 0 | MAP2K2 = 0 | MAP4K2 = 0 | MAPK1 = 0 | MAPK4 = 0 | MAPKAPK2 = 0 | MKNK1 = 0 | NTRK2 = 0 | NTRK3 = 0 | PAK4 = 0 | PBK 0 | PDGFRB 0 | PDK1 = 0

O=C1OC(COc2ccccc2[N+](=O)[O-])CC1Cc1ccccc1 (stereo not given) (10 µM)
inactive: IRAK3 = 0 | JAK1 = 0 | LCK 0 | LIMK1 = 0 | LIMK2 = 0 | LMTK2 = 0 | LYN 0 | MAP2K1 = 0 | MAP2K2 = 0 | MAP4K2 = 0 | MAPK1 = 0 | MAPK4 = 0 | MAPKAPK2 = 0 | MKNK1 = 0 | NTRK2 = 0 | NTRK3 = 0 | PAK4 = 0 | PBK 0 | PDGFRB 0 | PDK1 = 0

The results go on:

Fc1ccc(Cl)cc1-c1nc(Nc2ccncc2)c2nccnc2n1 (10 µM)
inactive: IRAK3 = 0 | JAK1 = 0 | LCK 0 | LIMK1 = 0 | LIMK2 = 0 | LMTK2 = 0 | LYN 0 | MAP2K1 = 0 | MAP2K2 = 0 | MAP4K2 = 0 | MAPK1 = 0 | MAPK4 = 0 | MAPKAPK2 = 0 | MKNK1 = 0 | NTRK2 = 0 | NTRK3 = 0 | PAK4 = 0 | PBK 0 | PDGFRB 0 | PDK1 = 0

From the supplement of paper PMC12823440, “Inhibitors supercharge kinase turnover through native proteolytic circuits” (Nature, 2025)
